Data taken from patent publication US20060148057A1, “Thioredoxin mutants and uses thereof” (priority 2002, published 2006).
These are yes or no findings as the source states them, for the method shown. In cells and extracts the contact can be indirect. Some results given as binding are weak or reduced against the parent protein; the word gives no strength.

Amino acid sequences for entries named in this document (tags omitted).
UniProt Q99683: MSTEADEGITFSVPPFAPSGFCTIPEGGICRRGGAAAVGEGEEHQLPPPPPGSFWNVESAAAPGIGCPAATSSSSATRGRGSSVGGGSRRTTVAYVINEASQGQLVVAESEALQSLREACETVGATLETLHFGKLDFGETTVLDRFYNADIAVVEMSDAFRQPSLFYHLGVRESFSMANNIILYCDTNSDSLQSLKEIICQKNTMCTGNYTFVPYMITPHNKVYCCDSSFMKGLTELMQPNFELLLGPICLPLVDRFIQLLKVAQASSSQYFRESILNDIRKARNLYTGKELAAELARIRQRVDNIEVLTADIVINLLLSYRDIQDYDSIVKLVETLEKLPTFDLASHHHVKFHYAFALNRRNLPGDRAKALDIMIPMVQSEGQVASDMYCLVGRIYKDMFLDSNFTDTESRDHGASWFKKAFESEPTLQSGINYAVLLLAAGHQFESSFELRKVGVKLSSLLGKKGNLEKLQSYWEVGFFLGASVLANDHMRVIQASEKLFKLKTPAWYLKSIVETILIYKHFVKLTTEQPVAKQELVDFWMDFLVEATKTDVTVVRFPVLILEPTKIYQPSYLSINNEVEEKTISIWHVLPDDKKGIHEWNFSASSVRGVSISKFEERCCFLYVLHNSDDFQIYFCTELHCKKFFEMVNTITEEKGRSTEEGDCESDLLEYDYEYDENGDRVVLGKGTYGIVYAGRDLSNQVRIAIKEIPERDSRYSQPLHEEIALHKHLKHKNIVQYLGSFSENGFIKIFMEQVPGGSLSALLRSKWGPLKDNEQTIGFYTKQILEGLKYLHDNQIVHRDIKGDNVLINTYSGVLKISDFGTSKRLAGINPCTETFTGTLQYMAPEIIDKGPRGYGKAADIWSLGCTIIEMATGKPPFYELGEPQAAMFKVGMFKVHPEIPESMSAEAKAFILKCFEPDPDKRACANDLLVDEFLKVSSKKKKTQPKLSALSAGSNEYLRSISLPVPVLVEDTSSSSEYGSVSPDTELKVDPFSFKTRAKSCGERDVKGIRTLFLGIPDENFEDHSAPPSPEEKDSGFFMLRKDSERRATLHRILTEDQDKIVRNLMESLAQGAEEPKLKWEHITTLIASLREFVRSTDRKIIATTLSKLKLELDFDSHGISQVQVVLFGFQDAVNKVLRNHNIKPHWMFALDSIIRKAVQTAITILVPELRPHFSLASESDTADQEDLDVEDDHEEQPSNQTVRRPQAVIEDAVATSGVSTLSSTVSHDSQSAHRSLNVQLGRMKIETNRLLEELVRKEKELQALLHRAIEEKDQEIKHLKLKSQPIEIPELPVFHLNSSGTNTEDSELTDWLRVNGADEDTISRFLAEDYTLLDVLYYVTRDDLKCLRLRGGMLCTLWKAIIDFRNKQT

Experiments:
HA-tagged ASK1-WT = HA-tagged ASK1-WT (UniProt Q99683); experiment: co-immunoprecipitation from 293T cells (anti-Flag IP/anti-HA blot and anti-HA IP/anti-Flag blot)
[1] = biological target: endogenous ASK1 of neonatal rat cardiomyocytes (rat) (UniProt D3ZZH6); experiment: co-immunoprecipitation of endogenous proteins from neonatal rat cardiomyocytes
[2] = biological target: endogenous ASK1 of neonatal rat cardiomyocytes (rat) (UniProt D3ZZH6); experiment: co-immunoprecipitation of endogenous proteins from neonatal rat cardiomyocytes (anti-cTnT IP/anti-ASK1 blot and the reverse; normal rabbit serum as control)

Question: With Flag-cTnT (from UniProt P45379 1-288) as the substance, how does the binding (HA-tagged ASK1-WT) read?
Answer: binds

Question: “endogenous cTnT of neonatal rat cardiomyocytes (from UniProt P50753 2-299)” was tested. Which binding [1] did it give?
Answer: binds

Question: And the binding [2]?
Answer: binds
